PubChem BioAssay AID720505 – Drosophila RNAi Screening Center, 2013

- Purpose: 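Fly regulators or components of the CRAC channel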 (primary screen)
- System: Drosophila S2R+ cells
- Reagents: long dsRNA against Drosophila genes
- Conditions: thapsigargin (2 µM) in calcium-free buffer to empty internal stores, then 2 mM calcium added back
- Measurement: 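Stores emptied by 2 µM thapsigargin without calcium, then 2 mM calcium re-added; fluo-4 fluorescence followed by FLIPR in 384-well plates, per-well averaged endpoint, raw; two screen passes, some wells retested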
- Reading the numbers: calcium signal: higher = more calcium entry after store depletion
- Rule for the call: 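Knock-downs counted as hits when calcium entry dropped relative to STIM1 positive and Rho1 negative controls present on each plate; roughly 1500 genes called, with reductions of differing size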
- Calls: active = called as lowering calcium entry; inactive = not called
In all, the deposit lists about 20,000 reagents; shown is an unselected part of those with a known target gene and a result. Over the whole deposit, about 2,100 (10%) were called active. 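Raw plate signals without normalisation; calls rest on control-based scores that were not deposited; replicate 2 separates called from uncalled poorly.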 Reagents against one gene are numbered here. Names joined by + are all predicted targets of the reagent. Not stated in the record: the amount of reagent, the time to read-out.

With knock-down of CG42353 + CG42354, the record shows calcium signal, replicate 1 = 85.6; calcium signal, replicate 2 = 114; inactive.
After knock-down of Cc2d2a #1, the record shows calcium signal, replicate 1 = 160; calcium signal, replicate 2 = 126; inactive.
Cc2d2a #2 showed calcium signal, replicate 1 = 161; calcium signal, replicate 2 = 132; inactive.
Tes showed calcium signal, replicate 1 = 127; calcium signal, replicate 2 = 143; inactive.
For CG15480 the deposit lists calcium signal, replicate 1 = 85; calcium signal, replicate 2 = 148; inactive.
Knock-down of Abi resulted in: calcium signal, replicate 1 = 98.8; calcium signal, replicate 2 = 146; inactive.
For Syn the deposit lists calcium signal, replicate 1 = 138; calcium signal, replicate 2 = 116; inactive.
With knock-down of Nup214 the results were calcium signal, replicate 1 = 165; calcium signal, replicate 2 = 100; inactive.
Against Mal-B1, the values are calcium signal, replicate 1 = 210; calcium signal, replicate 2 = 141; inactive.
CG10996 showed calcium signal, replicate 1 = 63.5; calcium signal, replicate 2 = 78.5; active.
Against CG7289, the entry reads calcium signal, replicate 1 = 90.6; calcium signal, replicate 2 = 292; inactive.
Against S6k, the entry reads calcium signal, replicate 1 = 118; calcium signal, replicate 2 = 97.4; inactive.
Silencing of ATP8 (retired record) came out at: calcium signal, replicate 1 = 177; calcium signal, replicate 2 = 83.6; inactive.
After knock-down of CG8034, the record shows calcium signal, replicate 1 = 177; calcium signal, replicate 2 = 114; inactive.
Silencing of CG2256 came out at: calcium signal, replicate 1 = 237; calcium signal, replicate 2 = 133; inactive.
For CG12715, the entry reads calcium signal, replicate 1 = 84.4; calcium signal, replicate 2 = 86.7; inactive.

Ordered by “calcium signal, replicate 2” (high to low): 2 of the entries above
CG2256 | calcium signal, replicate 1 = 237; calcium signal, replicate 2 = 133; call = inactive
CG8034 | calcium signal, replicate 1 = 177; calcium signal, replicate 2 = 114; call = inactive

Further results follow:
CG2574 showed calcium signal, replicate 1 = 66.6; calcium signal, replicate 2 = 92.5; active.
For Ptr #1, the entry reads calcium signal, replicate 1 = 154; calcium signal, replicate 2 = 202; inactive.
Ptr #2 showed calcium signal, replicate 1 = 144; calcium signal, replicate 2 = 100; inactive.
Against Marf, the entry reads calcium signal, replicate 1 = 95.8; calcium signal, replicate 2 = 113; inactive.
Against brv1, the values are calcium signal, replicate 1 = 130; calcium signal, replicate 2 = 165; inactive.
For CG14693 the deposit lists calcium signal, replicate 1 = 160; calcium signal, replicate 2 = 93.2; inactive.
Silencing of CG33752 resulted in: calcium signal, replicate 1 = 122; calcium signal, replicate 2 = 141; inactive.
After knock-down of CG14561 the results were calcium signal, replicate 1 = 102; calcium signal, replicate 2 = 113; inactive.
CG13933 scored calcium signal, replicate 1 = 164; calcium signal, replicate 2 = 104; inactive.
CG15382 scored calcium signal, replicate 1 = 130; calcium signal, replicate 2 = 143; inactive.
smash #1 scored calcium signal, replicate 1 = 130; calcium signal, replicate 2 = 94.7; inactive.
Knock-down of smash #2 came out at: calcium signal, replicate 1 = 123; calcium signal, replicate 2 = 86.3; inactive.
smash #3 gave calcium signal, replicate 1 = 72.7; calcium signal, replicate 2 = 192; inactive.
smash #4 gave calcium signal, replicate 1 = 85.4; calcium signal, replicate 2 = 147; inactive.
